# Test results from doi:10.1101/844365.
# Results are given in words; binding and its absence hold for the method and conditions named. A result given as binding can be weak or reduced; the word gives no strength. Sequences can lack the tags named with a protein.
# B1: ERF11, GAL4 activation domain fusion (protein, UniProt Q9C5I3 1-166)
# chain: MAPTVKTAAVKTNEGNGVRYRGVRKRPWGRYAAEIRDPFKKSRVWLGTFDTPEEAARAYDKRAIEFRGAKAKTNFPCYNINAHCLSLTQSLSQSSTVESSFPNLNLGSDSVSSRFPFPKIQVKAGMMVFDERSESDSSSVVMDVVRYEGRRVVLDLDLNFPPPPEN
# Target: C-terminal part of AtTPL, GAL4 binding domain fusion (Arabidopsis thaliana)
# Assay: two-hybrid
binder,measurement,value
B1,binding,binds
